Experimental data: PubChem BioAssay AID504764 (Drosophila RNAi Screening Center, 2011)

Purpose: 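Genes whose knock-down alters Notch-dependent transcription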 (primary screen)
Cell system: Drosophila Kc167 cells
Reagent: long dsRNA against Drosophila genes
Time to read-out: about 5 days (4 days dsRNA, then 24 h after transfection)
Treatment: transfection of constitutively active membrane-tethered Notch lacking the extracellular domain, read 24 h later
Measurement: 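Firefly luciferase from an E(spl)m3 reporter with active Notch, plus control-promoter and uninduced reporter wells for normalisation; unnormalised counts, duplicate wells a and b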
Reading the numbers: induced reporter light, run 1, well a and induced reporter light, run 1, well b: higher = more light from the Notch target reporter with active Notch; control promoter light, run 1, well a and control promoter light, run 1, well b: higher = more light from the viral control promoter (cell number, transfection, viability); uninduced reporter light, run 1, well a: higher = more light from the Notch target reporter without active Notch
Active means: 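Wells with low control signal or poorly matching duplicates excluded; duplicates averaged; per source plate, z beyond ±2 for induced/control log2 ratio or beyond ±1.8 for induced/uninduced marks a hit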
Meaning of the calls: active = modifier hit (raised or lowered Notch signal); inactive = not a hit
The screen tested about 22,000 reagents; this is an unselected part of those with a known target gene and a result. Over the whole deposit, 403 (1.9%) were called active. 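Unnormalised raw counts per well; ratio z-scores behind the hit calls and whether each hit raises or lowers signal are not deposited.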 Reagents against one gene are numbered here. A plus sign joins genes that one reagent is predicted to hit. Not stated in the record: the amount of reagent.

Silencing of Socs36E gave: induced reporter light, run 1, well a = 2.29e5; induced reporter light, run 1, well b = 2.30e5; control promoter light, run 1, well a = 2.16e5; control promoter light, run 1, well b = 1.94e5; uninduced reporter light, run 1, well a = 18315; inactive.
Against Afti the deposit lists induced reporter light, run 1, well a = 1.15e5; induced reporter light, run 1, well b = 1.12e5; control promoter light, run 1, well a = 56570; control promoter light, run 1, well b = 57850; uninduced reporter light, run 1, well a = 10265; inactive.
bbx + waw #1 showed induced reporter light, run 1, well a = 1.15e5; induced reporter light, run 1, well b = 1.02e5; control promoter light, run 1, well a = 1.20e5; control promoter light, run 1, well b = 64710; uninduced reporter light, run 1, well a = 9505; inactive.
bbx + waw #2 scored induced reporter light, run 1, well a = 1.13e5; induced reporter light, run 1, well b = 1.18e5; control promoter light, run 1, well a = 1.12e5; control promoter light, run 1, well b = 1.64e5; uninduced reporter light, run 1, well a = 11725; inactive.
Silencing of CG17085 (retired record) #1 gave: induced reporter light, run 1, well a = 1.19e5; induced reporter light, run 1, well b = 1.56e5; control promoter light, run 1, well a = 73890; control promoter light, run 1, well b = 1.15e5; uninduced reporter light, run 1, well a = 15600; inactive.
Against CG17085 (retired record) #2, the entry reads induced reporter light, run 1, well a = 99990; induced reporter light, run 1, well b = 1.24e5; control promoter light, run 1, well a = 66470; control promoter light, run 1, well b = 1.05e5; uninduced reporter light, run 1, well a = 13665; inactive.
Silencing of SelT resulted in: induced reporter light, run 1, well a = 2.15e5; induced reporter light, run 1, well b = 1.77e5; control promoter light, run 1, well a = 1.91e5; control promoter light, run 1, well b = 1.77e5; uninduced reporter light, run 1, well a = 18060; inactive.
With knock-down of Con the results were induced reporter light, run 1, well a = 1.32e5; induced reporter light, run 1, well b = 1.34e5; control promoter light, run 1, well a = 1.03e5; control promoter light, run 1, well b = 68530; uninduced reporter light, run 1, well a = 12992; inactive.
CG13426 scored induced reporter light, run 1, well a = 1.68e5; induced reporter light, run 1, well b = 1.33e5; control promoter light, run 1, well a = 1.62e5; control promoter light, run 1, well b = 1.95e5; uninduced reporter light, run 1, well a = 10200; inactive.

4 entries from above, limited to “induced reporter light, run 1, well b”.
bbx + waw #1 = 1.02e5
bbx + waw #2 = 1.18e5
CG17085 (retired record) #1 = 1.56e5
CG17085 (retired record) #2 = 1.24e5

The listing continues:
Nup37 showed induced reporter light, run 1, well a = 1.70e5; induced reporter light, run 1, well b = 1.69e5; control promoter light, run 1, well a = 2.28e5; control promoter light, run 1, well b = 2.17e5; uninduced reporter light, run 1, well a = 12585; inactive.
Depletion of msps came out at: induced reporter light, run 1, well a = 1.31e5; induced reporter light, run 1, well b = 1.23e5; control promoter light, run 1, well a = 1.86e5; control promoter light, run 1, well b = 1.57e5; uninduced reporter light, run 1, well a = 14428; inactive.
For ATPsyndelta, the entry reads induced reporter light, run 1, well a = 67655; induced reporter light, run 1, well b = 66725; control promoter light, run 1, well a = 92280; control promoter light, run 1, well b = 1.32e5; uninduced reporter light, run 1, well a = 5432; inactive.
With knock-down of CG10097 + CG10096 #1 the results were induced reporter light, run 1, well a = 1.15e5; induced reporter light, run 1, well b = 1.51e5; control promoter light, run 1, well a = 1.01e5; control promoter light, run 1, well b = 91640; uninduced reporter light, run 1, well a = 11145; inactive.
Against CG10097 + CG10096 #2, the entry reads induced reporter light, run 1, well a = 78240; induced reporter light, run 1, well b = 79490; control promoter light, run 1, well a = 79655; control promoter light, run 1, well b = 51925; uninduced reporter light, run 1, well a = 4940; inactive.
After knock-down of Dok the results were induced reporter light, run 1, well a = 41040; induced reporter light, run 1, well b = 47445; control promoter light, run 1, well a = 54615; control promoter light, run 1, well b = 64780; uninduced reporter light, run 1, well a = 9875; inactive.
RpS27 showed induced reporter light, run 1, well a = 60980; induced reporter light, run 1, well b = 47925; control promoter light, run 1, well a = 57905; control promoter light, run 1, well b = 70010; uninduced reporter light, run 1, well a = 3660; inactive.
Ucp4C showed induced reporter light, run 1, well a = 1.58e5; induced reporter light, run 1, well b = 1.59e5; control promoter light, run 1, well a = 1.84e5; control promoter light, run 1, well b = 1.33e5; uninduced reporter light, run 1, well a = 8345; inactive.
Tlk #1 scored induced reporter light, run 1, well a = 1.38e5; induced reporter light, run 1, well b = 1.46e5; control promoter light, run 1, well a = 3.27e5; control promoter light, run 1, well b = 2.84e5; uninduced reporter light, run 1, well a = 12840; inactive.
Knock-down of Tlk #2 resulted in: induced reporter light, run 1, well a = 14300; induced reporter light, run 1, well b = 16075; control promoter light, run 1, well a = 23425; control promoter light, run 1, well b = 18310; uninduced reporter light, run 1, well a = 5025; inactive.
For Tlk #3, the entry reads inactive.
After knock-down of Tlk #4 the results were active.
With knock-down of CG10462 the results were induced reporter light, run 1, well a = 2.03e5; induced reporter light, run 1, well b = 2.74e5; control promoter light, run 1, well a = 2.29e5; control promoter light, run 1, well b = 2.22e5; uninduced reporter light, run 1, well a = 17345; inactive.
Depletion of Ir94f came out at: induced reporter light, run 1, well a = 1.79e5; induced reporter light, run 1, well b = 2.16e5; control promoter light, run 1, well a = 2.25e5; control promoter light, run 1, well b = 2.27e5; uninduced reporter light, run 1, well a = 15435; inactive.
Against EMC2B + EMC2A, the values are induced reporter light, run 1, well a = 2.45e5; induced reporter light, run 1, well b = 2.23e5; control promoter light, run 1, well a = 2.36e5; control promoter light, run 1, well b = 2.40e5; uninduced reporter light, run 1, well a = 17500; inactive.
